Source: US20070232527A1, “Medicaments and methods combining a HCV protease inhibitor and an AKR competitor” (priority 2005, published 2007)

Tests used:
[1] = tested on: cytosolic enzymes that convert Formula Ia to Formula Ia′; assay: Inhibition of metabolism of 14C-Formula Ia to Formula Ia′ in human liver cytosol; settings: pH 7.4
[2] = tested on: cytosolic enzymes that convert Formula Ia to Formula Ia′; assay: in vitro; settings: human
[3] = pH 7.4, % Inhibition on Metabolite Formation of Compound Formula Ia

Row | Structure (SMILES) | inhibition at 120 min, 100 µM [1] [%] | inhibition at 120 min, 100 µM [2, 3] [%] | inhibition at 120 min, 100 μM [2, 3] [%] | inhibition at 2 h, 100 µM ([2]; pH 7.4, % of Inhibition on Metabolite Formation of Compound Formula Ia) [%]
1 | CN1C(=O)CN=C(c2ccccc2)c2cc(Cl)ccc21 [Diazepam] | 75 | – | – | –
2 | COc1ccc2cc([C@H](C)C(=O)O)ccc2c1 [Naproxen] | – | 44.7 | 44.7 | 44.7
